# Assay results from PubChem BioAssay AID624297 (National Center for Advancing Translational Sciences (NCATS), 2012).
# The campaign covered roughly 340,000 compounds. About 6,200 (1.8%) were called active. Inconclusive results, whose numbers are uncertain, are shown with a selection of clear calls. Calls follow the shape of the dose curve; as a rule, active = well fitted activation curve with a large enough effect; inconclusive = small, poorly fitted or top-dose-only effect; inactive = no such curve, though single readings can be large or run the other way. Potencies of inconclusive entries are doubtful fits and often do not repeat.
# Assay: A quantitative high throughput screen for small molecules that induce DNA re-replication in SW480 colon adenocarcinoma cells. Also: nearly all actives have a fitted effect of over 55% in size.
# Conditions: Hoechst DNA content imaging, 48 h; series mostly up to 46.1 µM
# Outline: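 250 cells/well; 23 nL cpd via pin tool; 48 hr, 37 C, 5% CO2; Hoechst 40 min; imager read of total nuclear intensity, ex 405/em 500-530 nm.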
# Potency is read from the fitted curve at half-maximal effect.
row,Structure (SMILES),Potency
1,O=c1[nH]c2ccccc2n1C1CCCCC1,inactive
2,CCOc1ccc2nc(SCC(=O)Nc3cc(C)on3)c(C)cc2c1,"inconclusive: 18.4 µM [activator, single point]"
3,O=C(/C=C/c1ccccc1[N+](=O)[O-])Nc1cc(S(=O)(=O)N2CCOCC2)ccc1N1CCOCC1,inactive
4,COc1ccc(CCN2CC(C(=O)N(C)C3CCOCC3)CCC2=O)cc1 (stereo not drawn),"inconclusive: 2.91 µM [activator, single point]"
5,Cc1ccc(N2CCN(S(=O)(=O)c3ccc4c(c3)oc(=O)n4C)CC2C)cc1 (stereo not drawn),"inconclusive: 7.31 µM [activator, partial curve, poor fit]"
6,CCCCc1ccc(/C(C)=N/NC(=O)C2CCCC2)cc1,inactive
7,CCN(CC)c1ccc2c(c1)oc(=O)c1c(Cl)cc(=O)oc12,active: 9.2 µM
8,CC(CCc1ccccc1)NC(=O)C1CC1 (stereo not drawn),"inconclusive: 0.92 µM [activator, partial curve, poor fit]"
9,Oc1csc(Cc2nc(-c3ccc4ccccc4c3)cs2)n1,"inconclusive: 18.4 µM [activator, single point]"
10,CCOc1ccc(NC(=O)COC(=O)C23CC4CC(CC(C4)C2)C3)c([N+](=O)[O-])c1,"inconclusive: 6.51 µM [activator, single point]"
11,COC(=O)c1[nH]c2ccc(Br)cc2c1NC(=O)CN1CCN(C2CCCCC2)CC1,"inconclusive: 29.1 µM [activator, partial curve, poor fit]"
12,CCCC(=O)Nc1ccc(C(=O)COC(=O)c2c(C)noc2C)cc1,"inconclusive: 4.61 µM [activator, partial curve, poor fit]"
13,COc1ccc(NC(=O)CCc2ccccc2)cc1S(=O)(=O)N1CCCCC1,inactive
14,O=C(CSc1c2c(nc3cc(Cl)ccc13)CCCC2)NCCN1CCOCC1,"inconclusive: 20.6 µM [activator, single point]"
15,Cc1noc(C)c1S(=O)(=O)N(CCc1ccccc1)Cc1ccccc1,"inconclusive: 15.8 µM [activator, partial curve, poor fit]"
16,CCOc1ccc2nc(NCCNC(=O)Nc3ccccc3)c(C#N)cc2c1,"inconclusive: 2.06 µM [activator, full curve]"
17,O=C(Nc1ccnn1C1CCN(C2CCOCC2)CC1)c1cccc(F)c1,"inconclusive: 32.6 µM [activator, single point]"
18,CC(O)[C@H]1CNC(=O)C(=O)N1CCCCC1CCCCC1 (stereo partly drawn),"inconclusive: 6.51 µM [activator, single point]"
19,COc1cc2c(cc1OC)CN(C(=O)/C=C/c1cccc([N+](=O)[O-])c1)CC2,"inconclusive: 29.1 µM [activator, single point]"
20,COc1ccc(/C=N/NC(=O)c2cnccn2)c(OC)c1OC,inactive
21,Cc1ccc(C2(C(F)(F)F)NC(=O)N3N=C4CCCCCN4C3=C2C#N)cc1 (stereo not drawn),"inconclusive: 29.1 µM [activator, single point]"
22,CC1CCCN(C(=O)CSc2nnc(-c3cccs3)o2)C1 (stereo not drawn),"inconclusive: 29.1 µM [activator, single point]"
23,CC(C)(C)NC(=O)C1CC(=O)N(CCc2ccc(F)cc2)C1 (stereo not drawn),inactive
24,COc1ccc(Cl)cc1/C=C/c1ccc2cccc(O)c2n1,"inconclusive: 20.6 µM [activator, single point]"
25,Cc1nn(C)c(C(=O)N/N=C/c2cccnc2)c1Br,"inconclusive: 29.1 µM [activator, single point]"

row,Structure (SMILES),Potency
1,O=C(O)c1[nH]c2ccc(Br)cc2c1CCN1C(=O)c2cccc([N+](=O)[O-])c2C1=O,"inconclusive: 29.1 µM [activator, single point]"
2,CC1Cc2cc(/C=C3/SC(=S)NC3=O)ccc2O1 (stereo not drawn),"inconclusive: 5.8 µM [activator, full curve, poor fit]"
3,COC(=O)c1ccccc1NC(=S)NC(=O)c1ccccc1C,"inconclusive: 29.1 µM [activator, single point]"
4,CCCCOc1ccc(/C=C/C(=O)N(CC)CC(=O)Nc2ccc3c(c2)OCCO3)cc1OC,"inconclusive: 29.1 µM [activator, single point]"
5,Nc1[nH]nc2ncc3cc4ccccc4nc3c12,"inconclusive: 29.1 µM [activator, single point]"
6,CCn1cc(C(=O)N2CCN(c3ccc(F)cc3)CC2)c2cc(OC)c(OC)cc2c1=O,"inconclusive: 20.6 µM [activator, single point]"
7,CCn1c(SCC(=O)Nc2ccc(OC)cc2)nc2nc3c(cc2c1=O)CCCC3,inactive
8,O=C(NC1CC1)c1ccc(N2CCCCC2)c([N+](=O)[O-])c1,"inconclusive: 29.1 µM [activator, single point]"
9,O=C(CSc1ccccc1F)NNC(=O)c1ccncc1,inactive
10,CCCCNc1nc(=S)n(-c2ccccc2)c(C)c1C(C)=O,"inconclusive: 23.1 µM [activator, single point]"
11,CCc1ccc(N2CC(O)(c3cccs3)[N+]3=C2SCCC3)cc1 (stereo not drawn),inactive
12,CCOC(=O)Cn1cc(Cl)c(=O)c(Cl)c1,inactive
13,CC(=O)NCCCNc1ccc([N+](=O)[O-])cc1,inactive
14,S=C(NCCc1ccccc1)N1CCN(C23CC4CC(CC(C4)C2)C3)CC1,"inconclusive: 29.1 µM [activator, single point]"
15,N#CC1=C2N=C(N)c3ccccc3N2C2=C(C(=O)CCC2)C1c1cccc(Cl)c1 (stereo not drawn),"inconclusive: 29.1 µM [activator, single point]"
16,Cc1ccc(/C(=N/Nc2ncnc3ccccc23)C(=O)O)cc1,active: 18.4 µM
17,Fc1ccc(-c2ccc(/C=N\n3cnnc3)o2)cc1Cl,"inconclusive: 0.0731 µM [activator, full curve, poor fit]"
18,Cc1ccccc1OCC(=O)Nc1cccc(N(C)S(C)(=O)=O)c1,inactive
19,OCC(CBr)(CBr)CBr,inactive
20,COC(=O)c1ccccc1N=Nc1c(N)[nH][nH]c1=O,"inconclusive: 25.9 µM [activator, single point]"
21,CCCCNC(=O)C1(NC(=O)Nc2ccc(C)cc2)CCCCC1,"inconclusive: 20.6 µM [activator, single point]"
22,Cc1nc(N2CCN(C)CC2)c2c(C)c(C(=O)Nc3ccc(C)c(F)c3)sc2n1,"inconclusive: 20.6 µM [activator, single point]"
23,O=P(O)(CCc1ccncc1)CN1CCCCC1,"inconclusive: 18.4 µM [activator, single point]"
24,CCc1ccc(Nc2n[n+](-c3ccccc3)c(-c3ccc(N(CC)CC)cc3)s2)cc1,inactive
25,COc1ccc(C(CCc2ccc(C)o2)NC(=O)Nc2ccc(OC)cc2OC)cc1 (stereo not drawn),inactive

# A draw from above in order of length of the SMILES, descending.
row,Structure (SMILES),Potency
6,CCn1cc(C(=O)N2CCN(c3ccc(F)cc3)CC2)c2cc(OC)c(OC)cc2c1=O,"inconclusive: 20.6 µM [activator, single point]"
8,O=C(NC1CC1)c1ccc(N2CCCCC2)c([N+](=O)[O-])c1,"inconclusive: 29.1 µM [activator, single point]"
18,Cc1ccccc1OCC(=O)Nc1cccc(N(C)S(C)(=O)=O)c1,inactive

# Following part.

row,Structure (SMILES),Potency
1,COc1ccc2nc(N=Nc3c(O)ccc4ccccc34)sc2c1,inactive
2,Cc1ccc(-c2nnn(CC(=O)N(CC(=O)NC3CCCC3)c3ccc(F)cc3)n2)o1,inactive
3,COc1ccccc1N1CCN(C(=S)NC(=O)/C=C/c2ccc(F)cc2)CC1,inactive
4,Cc1cc(-n2c(C)cc(C(=O)CCl)c2C)no1,"inconclusive: 6.51 µM [activator, partial curve, poor fit]"
5,S=c1[nH]nc(-c2cccnc2)n1C1CCCCC1,inactive
6,Cc1cccc(N2CCN(C(=O)CCC(=O)N3CC(C)Oc4ccc(C)cc43)CC2C)c1 (stereo not drawn),inactive
7,C/C=C/c1ccc(OCC(O)CNCCc2ccc(OC)cc2)c(OC)c1 (stereo not drawn),"inconclusive: 18.4 µM [activator, single point]"
8,C=C1CCC[C@]2(C)C[C@H]3OC(=O)C(CN4CCOCC4)[C@H]3C[C@@H]12 (stereo partly drawn),"inconclusive: 14.6 µM [activator, partial curve]"
9,O=C(N/N=C/c1coc2ccccc2c1=O)c1cn(-c2ccccc2)nc1-c1ccccc1,"inconclusive: 29.1 µM [activator, single point]"
10,Cc1[nH]nc(N)c1-c1ccc(Cl)cc1,inactive
11,CN(Cc1ccccc1)C(=O)c1cccc(NC(=O)Cc2cccc(NC(=O)C3CCN(C(=O)C4CCC4)CC3)c2)c1,inactive
12,COc1ccc(NC(=S)N2CCC(NC(=O)C3CCCCC3)CC2)cc1,inactive
13,CCN1CCN(c2nc3ccccc3nc2C(C#N)C(=O)OC2CCCCC2)CC1 (stereo not drawn),"inconclusive: 29.1 µM [activator, single point]"
14,O=[N+]([O-])c1cccc(/C=N/Nc2nc(N3CCCCC3)nc(N3CCCCC3)n2)c1,inactive
15,CCc1nc(Nc2ccc(NC(C)=O)cc2)c2oc3ccccc3c2n1,"inconclusive: 29.1 µM [activator, single point]"
16,COc1ccc(Oc2c(Cl)cnn(-c3ccc(F)cc3)c2=O)cc1,"inconclusive: 29.1 µM [activator, single point]"
17,CC1CCCCN1S(=O)(=O)CCNC(=O)c1ccccc1 (stereo not drawn),"inconclusive: 4.61 µM [activator, full curve, poor fit]"
18,O=c1cc(CCl)nc2sc3ccccc3n12,"inconclusive: 20.6 µM [activator, single point]"
19,CC(=O)N(C1=C(N)C(=O)c2ccccc2C1=O)C(C)C,"inconclusive: 29.1 µM [activator, partial curve, poor fit]"
20,COc1ccc2c(c1OC)C(=O)N1c3cccc(Cl)c3C(=O)OC21 (stereo not drawn),active: 0.651 µM
21,Cc1sc2nc(SCCN(C)C)n(-c3ccccc3)c(=O)c2c1-c1ccc(F)cc1,active: 18.4 µM
22,COc1ccccc1CCn1c(N)c(C#N)c2nc3ccccc3nc21,"inconclusive: 20.6 µM [activator, single point]"
23,O=C(CCCCCn1c(=S)[nH]c2ccc(N3CCOCC3)cc2c1=O)NCc1ccccc1Cl,"inconclusive: 29.1 µM [activator, single point]"
